{"source": "PubChem BioAssay AID1224830 | NIAID | 2016", "screen": "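Host factors that control LPS-induced TNF expression in human macrophages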 (primary screen)", "cells": "human THP-1 monocytic leukaemia cells, TNF dual-luciferase reporter clone, PMA-differentiated to macrophage-like cells", "reagent": "siRNA pool against human genes, 50 nM", "duration": "LPS for 4 h, given about 3 days after siRNA transfection", "treatment": "bacterial LPS (TLR4 ligand), 10 ng/ml", "measured": "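Ratio of firefly to renilla light, scaled to the plate median and expressed as a robust z-score per replicate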", "direction": "TNF reporter robust z-score: higher = stronger TNF reporter response to LPS", "call rule": "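Each well counts as active if its z-score is over 2.8 or under -1.5; controls are left without a call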", "note": "This is one part, drawn at random, of about 18,000 reagents. About 2,900 of them (16%) count as active. 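Calls are made per well; low scores hint the gene aids the LPS response, high scores that it dampens it.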 A number with no mark means an inactive call. Repeated entries: four replicate wells of each siRNA pool."}
{"gene": "TNRC6B (GeneID 23112)", "TNF reporter robust z-score": -0.95}
{"gene": "TNRC6B (GeneID 23112)", "TNF reporter robust z-score": -0.63}
{"gene": "TNRC6B (GeneID 23112)", "TNF reporter robust z-score": -0.3}
{"gene": "TNRC6B (GeneID 23112)", "TNF reporter robust z-score": 0.8}
{"gene": "OR2M3 (GeneID 127062)", "TNF reporter robust z-score": 0.09}
{"gene": "OR2M3 (GeneID 127062)", "TNF reporter robust z-score": -0.86}
{"gene": "OR2M3 (GeneID 127062)", "TNF reporter robust z-score": -0.98}
{"gene": "OR2M3 (GeneID 127062)", "TNF reporter robust z-score": -0.14}
{"gene": "METTL18 (GeneID 92342)", "TNF reporter robust z-score": -0.18}
{"gene": "METTL18 (GeneID 92342)", "TNF reporter robust z-score": -0.39}
{"gene": "METTL18 (GeneID 92342)", "TNF reporter robust z-score": 0.37}
{"gene": "METTL18 (GeneID 92342)", "TNF reporter robust z-score": -0.07}
{"gene": "IPO13 (GeneID 9670)", "TNF reporter robust z-score": "4.91 (active)"}
{"gene": "IPO13 (GeneID 9670)", "TNF reporter robust z-score": "3.52 (active)"}
{"gene": "IPO13 (GeneID 9670)", "TNF reporter robust z-score": 2.48}
{"gene": "IPO13 (GeneID 9670)", "TNF reporter robust z-score": 2.63}
{"gene": "TARS2 (GeneID 80222)", "TNF reporter robust z-score": -0.19}
{"gene": "TARS2 (GeneID 80222)", "TNF reporter robust z-score": 0.37}
{"gene": "TARS2 (GeneID 80222)", "TNF reporter robust z-score": -0.29}
{"gene": "TARS2 (GeneID 80222)", "TNF reporter robust z-score": 0.94}

Entries listed so far whose gene name starts with M or m (4):
{"gene": "METTL18 (GeneID 92342)", "TNF reporter robust z-score": -0.18}
{"gene": "METTL18 (GeneID 92342)", "TNF reporter robust z-score": -0.39}
{"gene": "METTL18 (GeneID 92342)", "TNF reporter robust z-score": 0.37}
{"gene": "METTL18 (GeneID 92342)", "TNF reporter robust z-score": -0.07}
